Taken from: PubChem BioAssay AID1053208 (Peter MacCallum Cancer Centre, 2014)
Aim: 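Genes whose silencing cuts survival of bone tumour cells only with doxorubicin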 (primary screen). Cells: mouse osteosarcoma cells, early-passage culture from an engineered mouse model of fibroblastic bone tumour. Reagent: siRNA pool against mouse genes, 40 nM. Timing: about 120 h (48 h before drug, then 72 h with drug). Treatment: doxorubicin 100 nM for 72 h, roughly 30-40% inhibitory dose. Read-out: 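Viability read as ATP luminescence after 72 h of 100 nM doxorubicin or none, duplicate wells averaged, scaled to non-targeting siRNA, then expressed as robust z-scores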. Direction: viability z-score with doxorubicin: higher = more viable cells under doxorubicin; viability z-score without drug: higher = more viable cells with knock-down alone. Call rule: 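Called active if knock-down leaves viability unchanged without drug (z within -2 to 2) but lowers it with doxorubicin (z at or under -2)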.
The whole screen tested about 17,000 reagents; shown is an unselected part. Over the whole deposit, 788 (4.7%) got an active call. 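Calls rest on z-score classes alone; an extra cut-off of viability at most 70% of control was not applied to them.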 Not all columns of the deposit are shown. Reagent sequences are not shown.

| gene | combined z-score class | viability z-score with doxorubicin | viability z-score without drug | Call |
| --- | --- | --- | --- | --- |
| Or4c126 | no change with or without drug | -0.34 | -0.34 | inactive |
| Gata5 | no change with or without drug | 0.56 | 0 | inactive |
| Sars2 | no change with or without drug | 0.67 | 0.51 | inactive |
| Gas2 | low cell count without drug only | -1.69 | -2.19 | inactive |
| Dock8 | no change with or without drug | -0.9 | 0.17 | inactive |
| Prr11 | no change with or without drug | -0.22 | -0.51 | inactive |
| Ccrl2 | no change with or without drug | 0 | 0.51 | inactive |
| Rab14 | no change with or without drug | -0.67 | -0.34 | inactive |
| Gucy2c | no change with or without drug | 0.45 | -0.17 | inactive |
| Ccdc83 | no change with or without drug | 0.67 | 1.52 | inactive |
| Xlr3a | no change with or without drug | -0.22 | 1.18 | inactive |
| Rusc1 | no change with or without drug | 0.45 | 0.51 | inactive |
| Utp4 | low cell count without drug only | -1.69 | -2.53 | inactive |
| Pold3 | low cell count with and without drug | -3.04 | -2.02 | inactive |
| Gm9732 | no change with or without drug | 0.56 | 1.18 | inactive |
| Kcns1 | no change with or without drug | -0.67 | -0.34 | inactive |
| Topors | no change with or without drug | 0.22 | 0.51 | inactive |
| Bid | high cell count with doxorubicin only | 3.15 | 0.84 | inactive |
| Or52s19 | no change with or without drug | -0.79 | -1.52 | inactive |
| Gja1 | no change with or without drug | -0.22 | -0.34 | inactive |
| Celsr1 | no change with or without drug | -1.12 | -0.17 | inactive |
| 4933434M16Rik | no change with or without drug | -0.34 | 0.67 | inactive |
| Or4g7 | no change with or without drug | 0.67 | -1.18 | inactive |
| Zmat4 | no change with or without drug | -0.67 | -0.17 | inactive |
| Lrrtm4 | no change with or without drug | -0.34 | -0.84 | inactive |
| Cldn2 | no change with or without drug | 1.12 | 1.01 | inactive |
| Foxi2 | no change with or without drug | 0.45 | 0.51 | inactive |
| Sall2 | no change with or without drug | 0.67 | 1.18 | inactive |
| Rpap3 | low cell count with doxorubicin only | -4.27 | -0.17 | active |
| Ddit4l | high cell count without drug only | 1.46 | 2.53 | inactive |
| Or4a70 | no change with or without drug | 0.67 | 0.51 | inactive |
| Cwc25 | no change with or without drug | -0.22 | 0.34 | inactive |
| Ndufs1 | no change with or without drug | 0.67 | 0.51 | inactive |
| Slc43a2 | no change with or without drug | 0.9 | -0.67 | inactive |
| Atp1b1 | no change with or without drug | 0.56 | -0.17 | inactive |
| Gp1ba | no change with or without drug | 0.56 | 0.84 | inactive |
| Mthfs | no change with or without drug | 0.11 | 0.17 | inactive |
| Asb5 | no change with or without drug | 0.56 | -1.18 | inactive |
| Krtap14 | no change with or without drug | -1.24 | -0.84 | inactive |
| Rdh14 | no change with or without drug | 0.67 | 0.84 | inactive |
| Cbfa2t3 | high cell count without drug only | -0.22 | 2.19 | inactive |
| Gpx6 | no change with or without drug | 1.01 | 0.17 | inactive |
| Isca1 | no change with or without drug | -0.67 | -1.01 | inactive |
| Ufsp1 | no change with or without drug | 0.22 | 0.51 | inactive |
| D830016O14Rik | no change with or without drug | 0.45 | 1.69 | inactive |
| Rp1 | no change with or without drug | 1.12 | 0.17 | inactive |
| Ttbk2 | no change with or without drug | -0.22 | 1.52 | inactive |
| Rab36 | no change with or without drug | -1.46 | 1.18 | inactive |
| Foxs1 | no change with or without drug | 0.45 | 1.01 | inactive |
| Ccl9 | no change with or without drug | 1.12 | 0.67 | inactive |
| Mak | no change with or without drug | -1.12 | 1.35 | inactive |
| Myc | no change with or without drug | -0.34 | 0.17 | inactive |
| Agxt | no change with or without drug | 0.45 | -0.51 | inactive |
| Pdlim7 | no change with or without drug | -0.67 | -0.84 | inactive |
| Ankrd17 | no change with or without drug | -0.34 | 0.17 | inactive |
| Cckar | no change with or without drug | -1.01 | 0.51 | inactive |
| Colgalt1 | no change with or without drug | 0.67 | -0.17 | inactive |
| Aamdc | high cell count with doxorubicin only | 2.7 | 1.52 | inactive |
| Dusp6 | no change with or without drug | 0.22 | -1.18 | inactive |
| Myo1f | no change with or without drug | 0.67 | -1.01 | inactive |
| Pabpc1 | low cell count with and without drug | -5.17 | -3.88 | inactive |
| Skint7 | no change with or without drug | -0.56 | 0.84 | inactive |
| Pcsk1n | no change with or without drug | -1.8 | 0.17 | inactive |
